This is a selection; strong and weak results do not stand in their true shares. Single values of this set are uncertain.

The chains behind the UniProt entries cited, without tags or fusion partners. Where a name states a change or a piece, a line headed by the entry shows the natural chain unless it says otherwise.
UniProt P78527, whole entry, looked up: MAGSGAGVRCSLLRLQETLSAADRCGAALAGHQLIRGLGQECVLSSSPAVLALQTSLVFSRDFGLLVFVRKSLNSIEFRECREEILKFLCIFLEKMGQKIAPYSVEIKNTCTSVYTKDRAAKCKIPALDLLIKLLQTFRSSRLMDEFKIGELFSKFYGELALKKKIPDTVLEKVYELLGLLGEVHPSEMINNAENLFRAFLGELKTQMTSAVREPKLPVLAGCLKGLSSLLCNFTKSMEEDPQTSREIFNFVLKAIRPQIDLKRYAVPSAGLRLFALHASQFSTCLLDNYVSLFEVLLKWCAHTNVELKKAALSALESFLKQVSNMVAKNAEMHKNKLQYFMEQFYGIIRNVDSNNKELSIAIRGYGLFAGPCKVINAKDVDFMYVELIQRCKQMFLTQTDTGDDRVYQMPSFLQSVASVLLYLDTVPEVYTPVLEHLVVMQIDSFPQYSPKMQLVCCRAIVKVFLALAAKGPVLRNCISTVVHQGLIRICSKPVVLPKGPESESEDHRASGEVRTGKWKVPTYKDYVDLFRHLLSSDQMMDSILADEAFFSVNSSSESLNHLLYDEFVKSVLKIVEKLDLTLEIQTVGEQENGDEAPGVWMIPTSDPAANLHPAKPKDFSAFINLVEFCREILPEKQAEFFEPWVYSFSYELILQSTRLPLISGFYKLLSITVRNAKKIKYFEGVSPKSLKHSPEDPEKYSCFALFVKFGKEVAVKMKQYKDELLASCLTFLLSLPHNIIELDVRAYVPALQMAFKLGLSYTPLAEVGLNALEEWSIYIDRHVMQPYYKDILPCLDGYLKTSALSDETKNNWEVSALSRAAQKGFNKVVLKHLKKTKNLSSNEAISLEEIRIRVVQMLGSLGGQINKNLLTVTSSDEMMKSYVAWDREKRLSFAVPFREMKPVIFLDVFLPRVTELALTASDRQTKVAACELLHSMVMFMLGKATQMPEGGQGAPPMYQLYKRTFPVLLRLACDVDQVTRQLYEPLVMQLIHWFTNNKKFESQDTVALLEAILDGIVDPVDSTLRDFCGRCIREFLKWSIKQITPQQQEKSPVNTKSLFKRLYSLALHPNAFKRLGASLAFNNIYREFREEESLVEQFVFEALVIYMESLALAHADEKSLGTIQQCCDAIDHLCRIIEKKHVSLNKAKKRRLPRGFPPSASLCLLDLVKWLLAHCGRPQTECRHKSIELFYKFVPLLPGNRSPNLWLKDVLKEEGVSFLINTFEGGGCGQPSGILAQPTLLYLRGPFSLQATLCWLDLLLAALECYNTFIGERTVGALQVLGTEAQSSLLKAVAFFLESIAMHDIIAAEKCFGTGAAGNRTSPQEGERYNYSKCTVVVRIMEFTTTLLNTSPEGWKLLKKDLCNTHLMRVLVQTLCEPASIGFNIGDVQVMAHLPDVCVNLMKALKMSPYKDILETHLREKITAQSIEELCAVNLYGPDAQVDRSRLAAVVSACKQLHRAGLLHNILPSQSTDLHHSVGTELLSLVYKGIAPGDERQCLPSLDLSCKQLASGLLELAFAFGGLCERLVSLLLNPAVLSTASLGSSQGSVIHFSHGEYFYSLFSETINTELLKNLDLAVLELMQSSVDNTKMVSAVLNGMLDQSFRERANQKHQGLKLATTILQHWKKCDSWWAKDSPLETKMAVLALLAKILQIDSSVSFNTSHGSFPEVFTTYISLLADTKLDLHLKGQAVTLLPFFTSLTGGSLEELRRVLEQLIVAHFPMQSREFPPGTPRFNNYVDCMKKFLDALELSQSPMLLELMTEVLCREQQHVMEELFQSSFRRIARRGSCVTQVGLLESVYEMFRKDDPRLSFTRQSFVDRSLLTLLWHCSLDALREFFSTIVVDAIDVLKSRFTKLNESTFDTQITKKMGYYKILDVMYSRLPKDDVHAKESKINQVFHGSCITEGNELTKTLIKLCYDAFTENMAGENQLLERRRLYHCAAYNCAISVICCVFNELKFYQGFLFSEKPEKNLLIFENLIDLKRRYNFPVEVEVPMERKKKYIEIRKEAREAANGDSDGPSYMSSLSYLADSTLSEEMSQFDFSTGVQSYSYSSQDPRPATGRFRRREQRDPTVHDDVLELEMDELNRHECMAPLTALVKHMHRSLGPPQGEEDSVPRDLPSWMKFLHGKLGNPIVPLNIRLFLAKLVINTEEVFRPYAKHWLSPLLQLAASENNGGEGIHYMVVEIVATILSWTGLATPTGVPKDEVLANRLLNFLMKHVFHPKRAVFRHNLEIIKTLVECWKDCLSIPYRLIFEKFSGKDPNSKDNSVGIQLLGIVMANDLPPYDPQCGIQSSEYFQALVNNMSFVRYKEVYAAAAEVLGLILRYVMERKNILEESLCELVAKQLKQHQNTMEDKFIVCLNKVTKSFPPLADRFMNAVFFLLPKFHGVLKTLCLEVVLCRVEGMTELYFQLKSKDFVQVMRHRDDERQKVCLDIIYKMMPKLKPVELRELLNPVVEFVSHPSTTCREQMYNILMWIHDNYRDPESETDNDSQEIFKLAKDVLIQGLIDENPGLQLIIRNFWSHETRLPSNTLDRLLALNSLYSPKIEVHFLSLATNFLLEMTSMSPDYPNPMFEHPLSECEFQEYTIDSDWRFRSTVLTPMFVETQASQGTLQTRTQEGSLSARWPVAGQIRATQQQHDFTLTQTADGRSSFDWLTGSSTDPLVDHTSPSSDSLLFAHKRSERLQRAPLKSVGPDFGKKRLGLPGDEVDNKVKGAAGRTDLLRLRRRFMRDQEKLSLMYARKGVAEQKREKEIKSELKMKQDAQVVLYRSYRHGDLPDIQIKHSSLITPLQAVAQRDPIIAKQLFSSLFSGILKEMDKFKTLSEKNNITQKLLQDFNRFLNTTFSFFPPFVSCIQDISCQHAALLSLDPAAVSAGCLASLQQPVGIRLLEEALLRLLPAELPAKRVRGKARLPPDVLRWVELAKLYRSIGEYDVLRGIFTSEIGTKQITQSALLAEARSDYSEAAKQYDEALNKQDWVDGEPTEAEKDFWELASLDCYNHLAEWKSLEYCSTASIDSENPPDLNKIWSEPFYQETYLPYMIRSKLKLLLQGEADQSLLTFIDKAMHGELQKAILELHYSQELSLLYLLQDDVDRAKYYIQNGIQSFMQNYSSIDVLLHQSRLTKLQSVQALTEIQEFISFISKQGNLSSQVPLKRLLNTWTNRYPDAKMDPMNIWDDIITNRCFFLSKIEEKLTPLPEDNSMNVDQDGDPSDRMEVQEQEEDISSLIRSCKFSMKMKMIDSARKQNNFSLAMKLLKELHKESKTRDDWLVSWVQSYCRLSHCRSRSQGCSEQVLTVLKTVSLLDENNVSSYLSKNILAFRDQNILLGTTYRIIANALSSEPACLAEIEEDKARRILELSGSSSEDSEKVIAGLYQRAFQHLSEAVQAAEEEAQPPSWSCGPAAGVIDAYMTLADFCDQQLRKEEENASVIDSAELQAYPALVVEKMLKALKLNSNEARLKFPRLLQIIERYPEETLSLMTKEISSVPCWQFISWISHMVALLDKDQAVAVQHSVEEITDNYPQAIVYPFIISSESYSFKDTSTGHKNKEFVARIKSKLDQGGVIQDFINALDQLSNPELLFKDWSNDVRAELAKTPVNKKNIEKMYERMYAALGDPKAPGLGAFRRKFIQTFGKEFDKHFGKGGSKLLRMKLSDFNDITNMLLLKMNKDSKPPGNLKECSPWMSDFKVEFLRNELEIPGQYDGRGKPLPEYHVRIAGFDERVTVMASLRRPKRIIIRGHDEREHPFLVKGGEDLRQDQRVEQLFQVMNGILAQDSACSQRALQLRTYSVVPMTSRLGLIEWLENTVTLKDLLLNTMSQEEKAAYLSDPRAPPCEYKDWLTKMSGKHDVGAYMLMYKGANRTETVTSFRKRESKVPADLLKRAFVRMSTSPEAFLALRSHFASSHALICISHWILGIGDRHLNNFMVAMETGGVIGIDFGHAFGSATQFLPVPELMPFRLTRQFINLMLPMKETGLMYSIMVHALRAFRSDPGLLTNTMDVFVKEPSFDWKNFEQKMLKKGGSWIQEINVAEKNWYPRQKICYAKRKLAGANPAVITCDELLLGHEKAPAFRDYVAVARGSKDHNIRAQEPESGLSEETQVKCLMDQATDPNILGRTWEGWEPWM
UniProt Q00839, whole entry, looked up: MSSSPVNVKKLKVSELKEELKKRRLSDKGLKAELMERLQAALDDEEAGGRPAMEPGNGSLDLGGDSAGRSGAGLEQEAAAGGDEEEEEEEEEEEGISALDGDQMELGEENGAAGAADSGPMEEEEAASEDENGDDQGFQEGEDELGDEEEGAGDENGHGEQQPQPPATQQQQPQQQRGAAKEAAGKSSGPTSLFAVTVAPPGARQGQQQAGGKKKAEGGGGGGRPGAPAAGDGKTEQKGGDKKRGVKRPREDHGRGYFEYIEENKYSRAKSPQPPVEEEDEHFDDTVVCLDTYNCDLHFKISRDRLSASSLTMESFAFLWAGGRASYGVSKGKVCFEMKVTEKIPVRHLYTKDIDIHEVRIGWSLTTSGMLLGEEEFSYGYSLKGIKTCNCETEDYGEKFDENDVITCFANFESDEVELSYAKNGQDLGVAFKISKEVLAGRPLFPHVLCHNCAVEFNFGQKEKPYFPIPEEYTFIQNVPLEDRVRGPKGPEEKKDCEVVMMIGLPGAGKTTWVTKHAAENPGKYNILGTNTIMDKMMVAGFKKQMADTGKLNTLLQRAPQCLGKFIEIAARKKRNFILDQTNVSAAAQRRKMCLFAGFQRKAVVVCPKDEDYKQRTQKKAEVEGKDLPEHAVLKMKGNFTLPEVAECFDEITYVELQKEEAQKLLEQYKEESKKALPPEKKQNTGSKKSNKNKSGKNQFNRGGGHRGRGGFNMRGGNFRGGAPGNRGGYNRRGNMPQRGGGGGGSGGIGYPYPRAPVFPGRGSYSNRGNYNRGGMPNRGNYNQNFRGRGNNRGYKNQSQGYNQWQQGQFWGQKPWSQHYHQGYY
UniProt P63104: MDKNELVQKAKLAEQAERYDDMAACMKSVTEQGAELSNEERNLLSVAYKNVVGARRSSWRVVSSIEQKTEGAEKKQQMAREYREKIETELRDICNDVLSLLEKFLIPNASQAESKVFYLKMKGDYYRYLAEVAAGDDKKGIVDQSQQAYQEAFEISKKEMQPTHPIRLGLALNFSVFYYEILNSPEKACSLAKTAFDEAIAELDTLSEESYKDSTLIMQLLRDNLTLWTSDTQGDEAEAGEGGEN
UniProt Q00577: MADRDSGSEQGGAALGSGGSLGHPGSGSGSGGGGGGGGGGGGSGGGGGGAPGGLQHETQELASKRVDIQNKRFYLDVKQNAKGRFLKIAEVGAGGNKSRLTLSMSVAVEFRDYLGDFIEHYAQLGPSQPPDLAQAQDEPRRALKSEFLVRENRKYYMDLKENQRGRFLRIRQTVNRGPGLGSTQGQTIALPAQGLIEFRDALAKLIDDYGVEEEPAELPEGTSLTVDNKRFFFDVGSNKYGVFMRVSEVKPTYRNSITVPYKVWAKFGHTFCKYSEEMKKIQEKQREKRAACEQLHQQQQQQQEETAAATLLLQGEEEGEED
UniProt P78347: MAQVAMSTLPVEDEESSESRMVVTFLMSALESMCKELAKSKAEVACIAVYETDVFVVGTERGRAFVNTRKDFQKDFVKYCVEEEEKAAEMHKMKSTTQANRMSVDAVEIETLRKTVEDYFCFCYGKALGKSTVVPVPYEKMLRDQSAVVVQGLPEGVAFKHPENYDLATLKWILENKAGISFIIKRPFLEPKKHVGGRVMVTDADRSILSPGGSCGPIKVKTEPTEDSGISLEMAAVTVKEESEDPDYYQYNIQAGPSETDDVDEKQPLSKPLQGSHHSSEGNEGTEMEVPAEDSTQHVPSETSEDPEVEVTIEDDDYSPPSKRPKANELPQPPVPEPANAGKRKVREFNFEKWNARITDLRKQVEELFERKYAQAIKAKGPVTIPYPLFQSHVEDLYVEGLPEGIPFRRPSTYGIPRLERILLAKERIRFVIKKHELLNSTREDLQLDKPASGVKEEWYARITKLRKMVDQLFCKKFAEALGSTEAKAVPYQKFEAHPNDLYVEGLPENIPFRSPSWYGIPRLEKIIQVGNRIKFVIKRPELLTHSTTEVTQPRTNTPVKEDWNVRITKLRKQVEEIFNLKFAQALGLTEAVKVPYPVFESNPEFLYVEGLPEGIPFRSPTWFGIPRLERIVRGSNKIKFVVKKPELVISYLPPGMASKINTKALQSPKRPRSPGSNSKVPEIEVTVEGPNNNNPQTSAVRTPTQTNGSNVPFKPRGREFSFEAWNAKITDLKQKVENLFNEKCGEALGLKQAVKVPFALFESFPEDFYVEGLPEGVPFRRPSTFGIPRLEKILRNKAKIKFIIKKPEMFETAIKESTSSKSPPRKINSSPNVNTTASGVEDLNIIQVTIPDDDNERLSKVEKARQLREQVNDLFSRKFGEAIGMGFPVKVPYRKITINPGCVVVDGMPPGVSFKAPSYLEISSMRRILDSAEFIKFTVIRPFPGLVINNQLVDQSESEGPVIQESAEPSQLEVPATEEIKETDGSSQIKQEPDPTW

Compound in the assay: COC(=O)/C=C/c1ccccc1 [methyl cinnamate]
The assay can be described thus: log2 ratio of iodoacetamide-alkyne labeling of the cysteine site, DMSO over compound (competition); higher = stronger covalent engagement of the cysteine by the compound, active = 1 or more. To be noted: 500 µM; treatment time 1 h; system: HEK293T cell lysate. In short, it runs like this:
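Three replicates, each with duplicate channels, were prepared from HEK293T lysate (2 mg/mL) treated with vehicle or electrophile at 500 µM for 1 h at ambient temperature. Iodoacetamide alkyne was then applied for 1 h, and samples were clicked to sCIP-TMT reagents, pooled, trypsin-digested overnight at 37 °C, enriched on streptavidin, acid-eluted and analysed on Orbitrap Eclipse LC-MS/MS with FAIMS, with FragPipe quantification. The log2 competition ratio per cysteine is the mean control-channel divided by the mean compound-channel reporter intensity. Cysteines quantified in only one replicate were left out.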
Turning to UniProt P78527_C2093, the “log2 ratio of iodoacetamide-alkyne labeling” value (from here on “log2 ratio”) was inactive: 0.0397.
The same measure for UniProt P62266_C90: inactive: 0.0391.
For the target EXOSC10 C612 (UniProt Q01780), the “log2 ratio” value is inactive: 0.0177.
For UniProt P78527_C3683 the value was inactive: 0.139.
The same measure for UniProt P62280_C116: inactive: 0.232.
The same measure for MRPS25 C149 (UniProt P82663): inactive: -0.192; for HNRNPU C450 (UniProt Q00839): inactive: 0.0317; for YWHAZ C94 (UniProt P63104): inactive: -0.19.
For P86790_C65 (UniProt P86791+P86790), the “log2 ratio” value was inactive: 0.186.
The same measure for CNBP C6 (UniProt P62633): inactive: 0.249; for PURA C272 (UniProt Q00577): inactive: 0.32; for UniProt P78527_C1499: inactive: 0.308.
Turning to GTF2I C215 (UniProt P78347), the “log2 ratio” value is inactive: 0.138.

These data come from the supplement of paper PMC11006884.
